# In the supplement of paper PMC3334620:
# In all, about 33,000 sequences were measured (“E-score (-0.5 to 0.5)”: median about -0.0034, highest 2% from about 0.25 on). This is one part of the list.
# Target: T1, Yap3 (UniProt P38749)
# T1 sequence: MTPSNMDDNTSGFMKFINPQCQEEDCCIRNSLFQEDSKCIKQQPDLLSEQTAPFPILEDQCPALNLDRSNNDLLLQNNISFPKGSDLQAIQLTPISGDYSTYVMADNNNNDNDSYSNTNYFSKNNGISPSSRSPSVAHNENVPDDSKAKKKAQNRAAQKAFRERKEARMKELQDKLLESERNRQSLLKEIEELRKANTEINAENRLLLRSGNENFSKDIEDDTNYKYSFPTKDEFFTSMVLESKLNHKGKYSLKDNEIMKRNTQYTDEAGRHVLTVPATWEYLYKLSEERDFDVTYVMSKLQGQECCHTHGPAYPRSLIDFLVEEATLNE
# Assay: PBM E-score (8-mer binding enrichment) (E-score (-0.5 to 0.5)); higher = stronger / more preferred TF binding
# Settings: protein concentration: 100 nM; construct: GST-full length
# Summary of the method: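 E-scores (a modified Wilcoxon-Mann-Whitney statistic) were assigned by the Universal PBM Analysis Suite to every ungapped eight-base word pooled with its reverse complement. The input came from universal all-10-mer Agilent arrays made double-stranded by primer extension and probed with GST-tagged yeast transcription factors at about 100-200 nM. Fluorescent anti-GST detected bound protein, and masliner normalised the scans.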
row,Sequence,PBM E-score
1,CTCTGACA,-0.211
2,AGCACCAC,-0.291
3,CTACGAAA,0.033
4,CATAAAGA,0.154
5,AACTGCAA,0.00467
6,ATGTTCCC,-0.0729
7,CACCGTGC,0.1
8,CCGCGGAA,0.042
9,CCCGGACC,-0.297
10,ATAGGCGC,0.0168
11,CTTGAAGC,0.00623
12,GAACTCAC,-0.00644
13,AGTCTTCC,-0.0245
14,GGTGAGAC,-0.0521
15,GAATTTGC,0.0376
16,CGGATGCA,-0.0966
17,ACCCCTAG,-0.134
18,ACGTATAA,0.134
19,ATTCCAGC,-0.141
20,CCCCGTCA,-0.169
21,CGACAATC,-0.0622
22,AGGAAAGC,-0.0454
23,ACTAAAGT,0.066
24,GTTATTAA,0.262
25,AACTGCAG,-0.019

row,Sequence,PBM E-score
1,CCAAACCA,0.0197
2,GGCGCACC,-0.279
3,AGACGTAT,0.0232
4,AGTGATCA,-0.0243
5,GCCCCGGA,-0.205
6,GCAACCCA,-0.11
7,ACACGCAA,0.145
8,TAGGATCA,0.0339
9,AACGCGAG,0.126
10,ATGTCAAA,0.152
11,AAACACTT,0.081
12,GACACTTA,-0.0329
13,GCTGCAGA,0.0952
14,AGGCGGGC,-0.268
15,ACATGTCA,0.036
16,AATTAGAA,0.0871
17,AGTAGTGG,0.0946
18,CGGGTCTA,-0.122
19,ACTGACCC,-0.288
20,AGAACTCA,0.15
21,ATAAAGGC,0.0448
22,ACCCGTAC,0.0141
23,GGCAACGA,0.0882
24,CGAAGGGA,-0.0657
25,ACGATACG,-0.143

row,Sequence,PBM E-score
1,CGGTCTCC,-0.203
2,CTAGTCCA,-0.0602
3,CCCGACCG,-0.3
4,GAATCGGA,0.141
5,AGTTTGAT,0.196
6,CAGACACC,-0.047
7,CAAAGTGA,0.0818
8,CAACCCCA,0.061
9,CAACTTAC,0.0185
10,AGACACCC,-0.165
11,AATCAAGC,-0.0795
12,CATCAGGA,-0.0225
13,AGCCGCTA,-0.0701
14,AGGTGTCG,-0.057
15,CTGGCCCA,-0.248
16,ACAACAAC,0.173
17,ACTCAAAT,0.0819
18,GACTTAAC,-0.152
19,ACGCTGTG,0.00262
20,ATATGATA,0.264
21,GGGAGGTA,-0.0852
22,TCAGAGCA,-0.116
23,GCACGGCA,0.0203
24,AAATTCCA,0.269
25,ATAATATA,0.307

row,Sequence,PBM E-score
1,ATCACGTG,0.0436
2,GAGTGCGC,-0.00802
3,CGCTCCAG,-0.276
4,AATTAATA,0.353
5,AAGCTTCG,-0.0846
6,ACCCGGTC,-0.134
7,ACTTATTC,0.162
8,TCGTGCAA,0.175
9,CGCATGAC,0.0695
10,AGTGTCTG,-0.0157
11,ACTGATGC,-0.103
12,CCTCTCTC,-0.184
13,CATAATCA,0.271
14,GAGGGTGC,-0.295
15,AAGTTGAT,0.0477
16,CCGGCTTC,-0.119
17,TGCGAAAA,0.0554
18,CCTCACGA,-0.0751
19,AGCAAAGC,0.0118
20,TAACATTA,0.166
21,ACCTACCC,-0.296
22,CCAATATC,0.129
23,ATCTCACA,-0.014
24,GTCCGGGA,0.0564
25,ATAATTCC,0.163

# Part of the list above, as tab-separated lines.
row	Sequence	PBM E-score
9	CGCATGAC	0.0695
10	AGTGTCTG	-0.0157
11	ACTGATGC	-0.103
12	CCTCTCTC	-0.184

# More results:

row,Sequence,PBM E-score
1,CATCCAAA,0.113
2,CGTGCGAC,-0.227
3,TAGGACCA,-0.0539
4,CCCCGTAG,-0.135
5,CTCAATGA,-0.0717
6,CACTTCGG,0.106
7,GGTTCTCA,-0.00233
8,ATTATATG,0.221
9,AGTGGCAG,0.0242
10,AAATCGAT,0.0774
11,ACTTTAGG,-0.214
12,ACCTAGAG,-0.122
13,GTCGGGCA,-0.0435
14,AGTAGTTC,0.0884
15,AGGGTTGC,-0.0559
16,CAAGCGCC,-0.22
17,CACAGGAC,-0.122
18,ACCCGTTG,-0.24
19,ACCGGAAC,0.0841
20,AGACGTTG,-0.0805
21,GGCGCTAA,-0.0117
22,CCTCTCAG,-0.334
23,GACTCCGC,-0.147
24,CTTTGCAA,0.0296
25,AAATGTTG,-0.124

# Retrieved one by one from the list above, seven records:
row,Sequence,PBM E-score
24,GTCCGGGA,0.0564
10,AGACACCC,-0.165
19,ATTCCAGC,-0.141
3,CTACGAAA,0.033
16,CCGGCTTC,-0.119
8,TCGTGCAA,0.175
1,CCAAACCA,0.0197

# Later entries.

row,Sequence,PBM E-score
1,TACATGGA,-0.0383
2,AGAATGCT,0.0575
3,GAAAAGTC,-0.0826
4,AAGAGAGG,-0.163
5,GAGCCTAC,0.0122
6,ATGAAACG,0.19
7,CCCCGTAA,0.0063
8,ATTATTGA,0.0643
9,CCAGCCAC,-0.0712
10,GGAATAAC,0.13
11,ATGTGGAA,0.133
12,CCTCTTAG,0.213
13,CTGGTTAA,0.0965
14,TAGGGATA,0.0595
15,GAAGCCGA,-0.0633
16,AGACGCCG,-0.0447
17,ACTTCAGA,-0.0393
18,TAGCGCCA,0.00697
19,GACAACCA,0.145
20,CGGTCAAC,0.101
21,CAACTGAG,0.0815
22,AATACACA,0.131
23,CCCTCCGC,-0.249
24,CGGCCCAC,-0.21
25,GGCATCGA,-0.125

row,Sequence,PBM E-score
1,AGTAATTA,0.307
2,CCTCCTTA,-0.186
3,AGACGAGG,-0.208
4,CTATCCCA,-0.02
5,ACCTATGG,-0.00983
6,GAGAAACC,0.0456
7,AACCGGTG,-0.113
8,ACGTGTGA,0.0975
9,ATCGCGTA,0.193
10,TAAACGTA,0.161
11,AACTCTTC,-0.0557
12,ATAACGCC,0.0798
13,ACTGTTCG,-0.00589
14,TAGTTTGA,0.141
15,CTCGTACA,0.024
16,CACTCGCG,0.0756
17,CGGGAATC,-0.0921
18,GCTGGGCC,-0.325
19,TATTCACA,0.27
20,AGCAAGCA,-0.198
21,AACTGTGT,0.171
22,GCTTGACA,0.0205
